Measured values as given in US8759295B2, “Peptide-peptidase inhibitor conjugates and methods of using same” (Amylin Pharmaceuticals, LLC, priority 2006, dated 2014).
Part of at least one peptide drawing is inferred or uncertain, most often the ends. At least one compound was matched to its structure with a doubt left. Starred links: 1 amine or outer side, 2 acyl side, 3 side chain; linkers in the order of their positions; H or OH if unused. Non-standard residues stand in square brackets, D forms with d. Residues, ends and D or L forms follow the SMILES beside them. *: point of attachment. Pyrrolidine(2S-CN) = N#C[C@@H]1CCCN1*; εLys = N[C@@H](CCCCN[*:1])C(=O)[*:2]; AEEA = NCCOCCOCC(=O)O

What follows are compounds tested on NIH/Swiss mice (assay: Oral glucose tolerance test (OGTT), glucose lowering). Conditions: 30 nM/kg.

Row | Compound | OGTT % maximal decrease [%]
1 | CC[C@H](C)[C@H](NC(=O)[C@H](CO)NC(=O)[C@H](Cc1ccc(O)cc1)NC(=O)[C@H](CC(=O)O)NC(=O)[C@H](CO)NC(=O)[C@@H](NC(=O)[C@H](Cc1ccccc1)NC(=O)[C@@H](NC(=O)CNC(=O)[C@H](CCC(=O)O)NC(=O)[C@H](C)NC(=O)[C@@H](N)Cc1ccc(O)cc1)[C@@H](C)O)[C@@H](C)CC)C(=O)N[C@@H](C)C(=O)N[C@@H](CC(C)C)C(=O)N[C@@H](CC(=O)O)C(=O)N[C@@H](CCCCN)C(=O)N[C@H](C(=O)N[C@@H](Cc1c[nH]cn1)C(=O)N[C@@H](CCC(N)=O)C(=O)N[C@@H](CCC(N)=O)C(=O)N[C@@H](CC(=O)O)C(=O)N[C@@H](Cc1ccccc1)C(=O)N[C@H](C(=O)N[C@@H](CC(N)=O)C(=O)N[C@@H](Cc1c[nH]c2ccccc12)C(=O)N[C@@H](CC(C)C)C(=O)N[C@@H](CC(C)C)C(=O)N[C@@H](C)C(=O)N[C@@H](CCC(N)=O)C(=O)N[C@@H](CCCCN)C(=O)NCCOCCOCC(=O)NCCCC[C@H](N)C(=O)N1CCC[C@H]1C#N)C(C)C)[C@@H](C)CC [[Leu^14]GIP(1-30)-Ado-Lys-N-ε-(2-(S)-cyano pyrrolidyl)] (H-YAEGTFISDYSIALDKIHQQDFVNWLLAQK[AEEA][εLys]-{Pyrrolidine(2S-CN)}) | −9
2 | CC[C@H](C)[C@H](NC(=O)[C@H](CO)NC(=O)[C@H](Cc1ccc(O)cc1)NC(=O)[C@H](CC(=O)O)NC(=O)[C@H](CO)NC(=O)[C@@H](NC(=O)[C@H](Cc1ccccc1)NC(=O)[C@@H](NC(=O)CNC(=O)[C@H](CCC(=O)O)NC(=O)[C@H](C)NC(=O)[C@@H](N)Cc1ccc(O)cc1)[C@@H](C)O)[C@@H](C)CC)C(=O)N[C@@H](C)C(=O)N[C@@H](CCSC)C(=O)N[C@@H](CC(=O)O)C(=O)N[C@@H](CCCCN)C(=O)N[C@H](C(=O)N[C@@H](Cc1c[nH]cn1)C(=O)N[C@@H](CCC(N)=O)C(=O)N[C@@H](CCC(N)=O)C(=O)N[C@@H](CC(=O)O)C(=O)N[C@@H](Cc1ccccc1)C(=O)N[C@H](C(=O)N[C@@H](CC(N)=O)C(=O)N[C@@H](Cc1c[nH]c2ccccc12)C(=O)N[C@@H](CC(C)C)C(=O)N[C@@H](CC(C)C)C(=O)N[C@@H](C)C(=O)N[C@@H](CCC(N)=O)C(=O)N[C@@H](CCCCN)C(=O)NCCOCCOCC(=O)NCCCC[C@H](N)C(=O)N1CCC[C@H]1C#N)C(C)C)[C@@H](C)CC [GIP(1-30)-Ado-Lys-N-ε-(2-(S)-cyano pyrrolidyl)] | −18
3 | CC[C@H](C)[C@H](NC(=O)[C@H](CO)NC(=O)[C@H](Cc1ccc(O)cc1)NC(=O)[C@H](CC(=O)O)NC(=O)[C@H](CO)NC(=O)[C@@H](NC(=O)[C@H](Cc1ccccc1)NC(=O)[C@@H](NC(=O)CNC(=O)[C@H](CCC(=O)O)NC(=O)[C@H](C)NC(=O)[C@H](Cc1ccc(O)cc1)NC(=O)COCCOCCNC(=O)COCCOCCNC(=O)CC[C@H](N)C(=O)N1CCC[C@H]1C#N)[C@@H](C)O)[C@@H](C)CC)C(=O)N[C@@H](C)C(=O)N[C@@H](CCSC)C(=O)N[C@@H](CC(=O)O)C(=O)N[C@@H](CCCCN)C(=O)N[C@H](C(=O)N[C@@H](Cc1c[nH]cn1)C(=O)N[C@@H](CCC(N)=O)C(=O)N[C@@H](CCC(N)=O)C(=O)N[C@@H](CC(=O)O)C(=O)N[C@@H](Cc1ccccc1)C(=O)N[C@H](C(=O)N[C@@H](CC(N)=O)C(=O)N[C@@H](Cc1c[nH]c2ccccc12)C(=O)N[C@@H](CC(C)C)C(=O)N[C@@H](CC(C)C)C(=O)N[C@@H](C)C(=O)N[C@@H](CCC(N)=O)C(=O)N[C@@H](CCCCN)C(=O)N1CCC[C@H]1C(=O)N[C@@H](CO)C(=O)N[C@@H](CO)C(=O)NCC(=O)N[C@@H](C)C(=O)N1CCC[C@H]1C(=O)N1CCC[C@H]1C(=O)N1CCC[C@H]1C(=O)N[C@@H](CO)C(=O)O)C(C)C)[C@@H](C)CC [N-(γ-L-Glu-2-(S)-cyanopyrrolidyl)-Ado-Ado) GIP(1-30)-exendin-4(31-39)] | 3
4 | CC[C@H](C)[C@H](NC(=O)[C@H](CO)NC(=O)[C@H](Cc1ccc(O)cc1)NC(=O)[C@H](CC(=O)O)NC(=O)[C@H](CO)NC(=O)[C@@H](NC(=O)[C@H](Cc1ccccc1)NC(=O)[C@@H](NC(=O)CNC(=O)[C@H](CCC(=O)O)NC(=O)[C@@H](C)NC(=O)[C@@H](N)Cc1ccc(O)cc1)[C@@H](C)O)[C@@H](C)CC)C(=O)N[C@@H](C)C(=O)N[C@@H](CC(C)C)C(=O)N[C@@H](CC(=O)O)C(=O)N[C@@H](CCCCN)C(=O)N[C@H](C(=O)N[C@@H](Cc1c[nH]cn1)C(=O)N[C@@H](CCC(N)=O)C(=O)N[C@@H](CCC(N)=O)C(=O)N[C@@H](CC(=O)O)C(=O)N[C@@H](Cc1ccccc1)C(=O)N[C@H](C(=O)N[C@@H](CC(N)=O)C(=O)N[C@@H](Cc1c[nH]c2ccccc12)C(=O)N[C@@H](CC(C)C)C(=O)N[C@@H](CC(C)C)C(=O)N[C@@H](C)C(=O)N[C@@H](CCC(N)=O)C(=O)N[C@@H](CCCCN)C(=O)N1CCC[C@H]1C(=O)N[C@@H](CO)C(=O)N[C@@H](CO)C(=O)NCC(=O)N[C@@H](C)C(=O)N1CCC[C@H]1C(=O)N1CCC[C@H]1C(=O)N1CCC[C@H]1C(=O)N[C@@H](CO)C(=O)NCCOCCOCC(=O)NCCOCCOCC(=O)NCCCCCCCCCCC(=O)NCCC(=O)NCCC(=O)NCCCC[C@H](NC(=O)[C@@H]1CCC(=O)N1)C(=O)N[C@@H](Cc1c[nH]c2ccccc12)C(=O)N[C@@H](C)C(=O)N1CCC[C@H]1C(=O)O)C(C)C)[C@@H](C)CC [[D-Ala^2, Leu^14] GIP(1-30)-exendin-4(31-39)-Ado-Ado-Aun-βAla-βAla-ε-NH-Lys(α-NH-Pyroglutamoyl)-Trp-Ala-Pro] | −21
5 | CC[C@H](C)[C@H](NC(=O)[C@H](CO)NC(=O)[C@H](Cc1ccc(O)cc1)NC(=O)[C@H](CC(=O)O)NC(=O)[C@H](CO)NC(=O)[C@@H](NC(=O)[C@H](Cc1ccccc1)NC(=O)[C@@H](NC(=O)CNC(=O)[C@H](CCC(=O)O)NC(=O)[C@@H](C)NC(=O)[C@@H](N)Cc1ccc(O)cc1)[C@@H](C)O)[C@@H](C)CC)C(=O)N[C@@H](C)C(=O)N[C@@H](CCSC)C(=O)N[C@@H](CC(=O)O)C(=O)N[C@@H](CCCCN)C(=O)N[C@H](C(=O)N[C@@H](Cc1c[nH]cn1)C(=O)N[C@@H](CCC(N)=O)C(=O)N[C@@H](CCC(N)=O)C(=O)N[C@@H](CC(=O)O)C(=O)N[C@@H](Cc1ccccc1)C(=O)N[C@H](C(=O)N[C@@H](CC(N)=O)C(=O)N[C@@H](Cc1c[nH]c2ccccc12)C(=O)N[C@@H](CC(C)C)C(=O)N[C@@H](CC(C)C)C(=O)N[C@@H](C)C(=O)N[C@@H](CCC(N)=O)C(=O)N[C@@H](CCCCN)C(=O)NCCOCCOCC(=O)NCCOCCOCC(=O)NCCCCCCCCCCC(=O)NCCC(=O)NCCC(=O)NCCCC[C@H](NC(=O)[C@@H]1CCC(=O)N1)C(=O)N[C@@H](Cc1c[nH]c2ccccc12)C(=O)N[C@@H](C)C(=O)N1CCC[C@H]1C(=O)O)C(C)C)[C@@H](C)CC [[D-Ala2]GIP-(1-30)-Ado-Ado-Aun-βAla-βAla-c-NH-Lys(α-NH-Pyroglutamoyl)-Trp-Ala-Pro] | −6
6 | CC[C@H](C)[C@H](NC(=O)[C@H](CO)NC(=O)[C@H](Cc1ccc(O)cc1)NC(=O)[C@H](CC(=O)O)NC(=O)[C@H](CO)NC(=O)[C@@H](NC(=O)[C@H](Cc1ccccc1)NC(=O)[C@@H](NC(=O)CNC(=O)[C@H](CCC(=O)O)NC(=O)[C@H](C)NC(=O)[C@@H](N)Cc1ccc(O)cc1)[C@@H](C)O)[C@@H](C)CC)C(=O)N[C@@H](C)C(=O)N[C@@H](CCSC)C(=O)N[C@@H](CC(=O)O)C(=O)N[C@@H](CCCCN)C(=O)N[C@H](C(=O)N[C@@H](Cc1c[nH]cn1)C(=O)N[C@@H](CCC(N)=O)C(=O)N[C@@H](CCC(N)=O)C(=O)N[C@@H](CC(=O)O)C(=O)N[C@@H](Cc1ccccc1)C(=O)N[C@H](C(=O)N[C@@H](CC(N)=O)C(=O)N[C@@H](Cc1c[nH]c2ccccc12)C(=O)N[C@@H](CC(C)C)C(=O)N[C@@H](CC(C)C)C(=O)N[C@@H](C)C(=O)N[C@@H](CCC(N)=O)C(=O)N[C@@H](CCCCNC(=O)COCCOCCNC(=O)CC[C@H](N)C(=O)N1CCC[C@H]1C#N)C(N)=O)C(C)C)[C@@H](C)CC [Lys^30N-ε-(Ado-(γ-L-Glu-2-(S)-cyanopyrrolidyl)) GIP(1-30)] | −10
7 | CC[C@H](C)[C@H](NC(=O)[C@H](CO)NC(=O)[C@H](Cc1ccc(O)cc1)NC(=O)[C@H](CC(=O)O)NC(=O)[C@H](CO)NC(=O)[C@@H](NC(=O)[C@H](Cc1ccccc1)NC(=O)[C@@H](NC(=O)CNC(=O)[C@H](CCC(=O)O)NC(=O)[C@H](C)NC(=O)[C@H](Cc1ccc(O)cc1)NC(=O)COCCOCCNC(=O)COCCOCCNC(=O)CC[C@H](N)C(=O)N1CCC[C@H]1C#N)[C@@H](C)O)[C@@H](C)CC)C(=O)N[C@@H](C)C(=O)N[C@@H](CCSC)C(=O)N[C@@H](CC(=O)O)C(=O)N[C@@H](CCCCN)C(=O)N[C@H](C(=O)N[C@@H](Cc1c[nH]cn1)C(=O)N[C@@H](CCC(N)=O)C(=O)N[C@@H](CCC(N)=O)C(=O)N[C@@H](CC(=O)O)C(=O)N[C@@H](Cc1ccccc1)C(=O)N[C@H](C(=O)N[C@@H](CC(N)=O)C(=O)N[C@@H](Cc1c[nH]c2ccccc12)C(=O)N[C@@H](CC(C)C)C(=O)N[C@@H](CC(C)C)C(=O)N[C@@H](C)C(=O)N[C@@H](CCC(N)=O)C(=O)N[C@@H](CCCCN)C(=O)O)C(C)C)[C@@H](C)CC [N-(γ-L-Glu-2-(S)-cyanopyrrolidyl)-Ado-Ado) GIP(1-30)] | −8

Same assay, conditions: IP, 2 hour fasted mice

Row | Compound | glucose lowering in OGTT (FIGS. 7, 8)
8 | CC[C@H](C)[C@H](NC(=O)[C@H](Cc1ccccc1)NC(=O)[C@H](CCC(=O)O)NC(=O)[C@H](CCCCN)NC(=O)[C@H](C)NC(=O)[C@H](C)NC(=O)[C@H](CCC(N)=O)NC(=O)CNC(=O)[C@H](CCC(=O)O)NC(=O)[C@H](CC(C)C)NC(=O)[C@H](Cc1ccc(O)cc1)NC(=O)[C@H](CO)NC(=O)[C@H](CO)NC(=O)[C@@H](NC(=O)[C@H](CC(=O)O)NC(=O)[C@H](CO)NC(=O)[C@@H](NC(=O)[C@H](Cc1ccccc1)NC(=O)[C@@H](NC(=O)CNC(=O)[C@H](CCC(=O)O)NC(=O)[C@H](C)NC(=O)[C@@H](N)Cc1c[nH]cn1)[C@@H](C)O)[C@@H](C)O)C(C)C)C(=O)N[C@@H](C)C(=O)N[C@@H](Cc1c[nH]c2ccccc12)C(=O)N[C@@H](CC(C)C)C(=O)N[C@H](C(=O)N[C@@H](CCCCN)C(=O)NCC(=O)N[C@@H](CCCNC(=N)N)C(=O)NCC(=O)NCC(=O)NCC(=O)NCCCC[C@H](N)C(=O)N1CCSC1)C(C)C [Compound 4844, GLP-1-(7-37)-GG-(S)-2,6-diamino-1-(thiazolidin-3-yl)hexan-1-one amide] | retain the glucose-lowering activity of GLP-1
